At least one peptide structure holds a part that was inferred or is arguable (an end, a ring closure or a residue). Peptide text beside a SMILES is read from it. * marks the point of attachment. NH(β-GlcNAc) = CC(=O)N[C@@H]1[C@@H](O)[C@H](O)[C@@H](CO)O[C@H]1N*
Molecular target: GLP-1 receptor (Homo sapiens, UniProt P43220)
Experiment: Assay for production of cAMP
Details: read-out: EC50 (cAMP assay); CHO cells forced to express GLP-1 receptor; 100% = maximum cAMP produced by GLP-1

The chains behind the UniProt entries cited, without tags or fusion partners. Residues count along the entry.
UniProt P43220, 24-463, species assumed: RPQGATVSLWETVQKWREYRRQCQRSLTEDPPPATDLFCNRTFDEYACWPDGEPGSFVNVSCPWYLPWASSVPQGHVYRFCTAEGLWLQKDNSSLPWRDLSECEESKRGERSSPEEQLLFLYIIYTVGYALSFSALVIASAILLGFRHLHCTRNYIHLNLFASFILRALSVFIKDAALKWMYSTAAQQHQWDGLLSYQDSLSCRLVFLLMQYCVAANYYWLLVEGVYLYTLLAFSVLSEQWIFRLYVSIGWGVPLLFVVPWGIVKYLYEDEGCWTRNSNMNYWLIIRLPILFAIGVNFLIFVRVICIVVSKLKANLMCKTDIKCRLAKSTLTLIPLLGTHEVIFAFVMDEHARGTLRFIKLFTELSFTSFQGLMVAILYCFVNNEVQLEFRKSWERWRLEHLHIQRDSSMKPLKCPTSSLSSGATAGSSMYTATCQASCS

Structure (SMILES) | EC50 [nM]
CC[C@H](C)[C@H](NC(=O)[C@H](Cc1ccccc1)NC(=O)[C@H](CC(=O)N[C@@H]1O[C@H](CO)[C@@H](O)[C@H](O)[C@H]1NC(C)=O)NC(=O)[C@H](CCCNC(=N)N)NC(=O)[C@@H](NC(=O)[C@H](C)NC(=O)[C@H](CC(=O)N[C@@H]1O[C@H](CO)[C@@H](O)[C@H](O)[C@H]1NC(C)=O)NC(=O)[C@H](CCC(=O)O)NC(=O)[C@H](CCC(=O)O)NC(=O)[C@H](CCSC)NC(=O)[C@H](CCC(N)=O)NC(=O)[C@H](CCCCN)NC(=O)[C@H](CO)NC(=O)[C@H](CC(C)C)NC(=O)[C@H](CC(=O)O)NC(=O)[C@H](CO)NC(=O)[C@@H](NC(=O)[C@H](Cc1ccccc1)NC(=O)[C@@H](NC(=O)CNC(=O)[C@H](CCC(=O)O)NC(=O)CNC(=O)[C@@H](N)Cc1c[nH]cn1)[C@@H](C)O)[C@@H](C)O)C(C)C)C(=O)N[C@@H](CCC(=O)O)C(=O)N[C@@H](Cc1c[nH]c2ccccc12)C(=O)N[C@@H](CC(C)C)C(=O)N[C@@H](CCCCN)C(=O)N[C@@H](CC(N)=O)C(=O)NCC(=O)NCC(=O)N1CCC[C@H]1C(=O)N[C@@H](CO)C(=O)N[C@@H](CO)C(=O)NCC(=O)N[C@@H](CC(=O)N[C@@H]1O[C@H](CO)[C@@H](O)[C@H](O)[C@H]1NC(C)=O)C(=O)N1CCC[C@H]1C(=O)N1CCC[C@H]1C(=O)N1CCC[C@H]1C(=O)N[C@@H](CO)C(=O)N[C@@H](CC(=O)N[C@@H]1O[C@H](CO)[C@@H](O)[C@H](O)[C@H]1NC(C)=O)C(N)=O [EX17213540NG] (H-HGEGTFTSDLSKQMEED(NH(β-GlcNAc))AVRD(NH(β-GlcNAc))FIEWLKNGGPSSGD(NH(β-GlcNAc))PPPSD(NH(β-GlcNAc))-NH2; N-terminus and C-terminus assumed) | 0.11
CC[C@H](C)[C@H](NC(=O)[C@H](Cc1ccccc1)NC(=O)[C@H](CCC(=O)O)NC(=O)[C@H](CCCCN)NC(=O)[C@H](C)NC(=O)[C@H](C)NC(=O)[C@H](CCC(N)=O)NC(=O)CNC(=O)[C@H](CCC(=O)O)NC(=O)[C@H](CC(C)C)NC(=O)[C@H](Cc1ccc(O)cc1)NC(=O)[C@H](CO)NC(=O)[C@H](CO)NC(=O)[C@@H](NC(=O)[C@H](CC(=O)O)NC(=O)[C@H](CO)NC(=O)[C@@H](NC(=O)[C@H](Cc1ccccc1)NC(=O)[C@@H](NC(=O)CNC(=O)[C@H](CCC(=O)O)NC(=O)[C@H](C)NC(=O)[C@@H](N)Cc1c[nH]cn1)[C@@H](C)O)[C@@H](C)O)C(C)C)C(=O)N[C@@H](C)C(=O)N[C@@H](Cc1c[nH]c2ccccc12)C(=O)N[C@@H](CC(C)C)C(=O)N[C@H](C(=O)N[C@@H](CC(=O)N[C@@H]1O[C@H](CO)[C@@H](O[C@@H]2O[C@H](CO)[C@H](O)[C@H](O)[C@H]2O)[C@H](O)[C@H]1NC(C)=O)C(=O)NCC(=O)N[C@@H](CCCNC(=N)N)C(=O)N[C@@H](CC(=O)N[C@@H]1O[C@H](CO)[C@@H](O[C@@H]2O[C@H](CO)[C@H](O)[C@H](O)[C@H]2O)[C@H](O)[C@H]1NC(C)=O)C(N)=O)C(C)C [GL3437NL] | 0.11

Source: patent US20100016547A1, “Glycosilated Peptide and Medicine Comprising It as an Effective Ingredient” (priority 2005, published 2010)
